The results in this text go back to PubChem BioAssay AID2685 (National Center for Advancing Translational Sciences (NCATS), 2010).

This assay in a line: qHTS Assay for Lipid Storage Modulators in Drosophila S3 Cells.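 For cell number change: cells counted by Cell Tracker Red CMTPX staining in the red channel.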 Particulars: BODIPY lipid droplet fluorescence, 18-24 h; for cell number change: measured here: cell count max response, cells fed with added oleic acid. In outline: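 Drosophila S3 cells got compounds at several concentrations plus oleic acid (400 uM solution). Laser-scanning cytometry with 488 nm excitation read lipid droplets at 500-530 nm and cells at 575-640 nm. Percent activity was relative to 20 uM Triacsin C.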

Setting [1] is: measured here: lipid fluorescence (Fed channel) AC50, cells fed with added oleic acid.
[2] abbreviates: measured here: cell number channel AC50, cells fed with added oleic acid.

The other results are listed elsewhere or left out. These are further read-outs of the screen, such as a control signal, another cell line or another target. No call is given for them. Most of these compounds were active or inconclusive in the main read-out, so they are no random draw. Potencies come from curve fits of mixed quality, noted in brackets.

Take `O=C(Nc1ccc2c(c1)OCO2)C1CCN(c2ccc(S(=O)(=O)N3CCOCC3)cc2)CC1`: the cell number change came to 5.4%. Also, the AC50 under setting [1] is 6.51 µM [rising, partial curve].

`N#C/C(=C\c1ccc(Cl)cc1Cl)c1n[nH]c(Cn2cncn2)n1`: the cell number change is -23.8%. The half-maximal activity concentration (AC50) under setting [1] is 6.51 µM [rising, single point].

`COc1nccnc1NS(=O)(=O)c1ccc(NCc2cc(Br)ccc2O)cc1`: the cell number change was determined as 15.3%. The AC50 under setting [1] was 29.1 µM [rising, single point].

`Cc1ncc(N=Nc2ccc(F)cc2)c(-c2ccc(Cl)cc2)n1`: the AC50 under setting [2] is 3.26 µM [falling, partial curve].

On to `CSc1ccccc1NC(=O)CSCc1nc2sc(C)c(C)c2c(=O)[nH]1`, for which the cell number change was determined as 6.02%.

Turning to `CC(C)N(c1ccccc1)c1ccc(NC(=O)CCl)cc1`, the cell number change was -43.9%. Besides, the half-maximal activity concentration (AC50) under setting [2] was 1.3 µM [rising, full curve].

For `CC(=O)N(Cc1ccccc1)c1ccc(C(=O)O)cc1`, the cell number change was -33.2%. Under setting [1], the concentration at half-maximal activity (AC50) is 0.651 µM [falling, full curve].

As to `Cc1nnc(SCC(=O)Nc2ccc3[nH]c(=O)[nH]c3c2)s1`, the cell number change is -35%. In addition, the concentration at half-maximal activity (AC50) under setting [2] was 1.64 µM [falling, full curve].

Consider `Cc1csc(CNc2ncnc3ccc(-c4ccco4)cc23)c1`, for which the cell number change was -0.451%. For the same compound, the AC50 under setting [2] is 0.164 µM [falling, full curve, poor fit]. The half-maximal activity concentration (AC50) under setting [1] is 0.13 µM [falling, full curve, poor fit].

On to `Cc1ccc(/C=C(\C#N)C(=O)Nc2ccccn2)o1`, for which the cell number change turned out to be 13.1%. The AC50 under setting [1] was 6.51 µM [falling, single point].

For `CCN(CC)CCNC(=O)c1ccc(NC(=O)c2cccc(S(=O)(=O)N3c4ccccc4CC3C)c2)cc1` (stereo not given), the cell number change is 14.6%.

On to `Cc1cnc(C(=O)Nc2ccccc2-c2ccc(C)o2)cn1`, for which the cell number change is 24.8%. Besides, under setting [2], the AC50 is 2.31 µM [rising, full curve, poor fit].

As to `C=Cn1c(C(=O)O)cc(CC)c1-c1ccccc1`, the AC50 under setting [2] was 6.51 µM [rising, single point].

With `Cc1ccc(C)c(S(=O)(=O)N2CCN(CC(=O)Nc3cc(C)on3)CC2)c1`, the AC50 is 1.46 µM [rising, partial curve] under setting [2] and 0.164 µM [rising, full curve, poor fit] under setting [1].

As to `O=C(COc1ccc2c(c1)CCC2)N1CCN(c2ccccc2F)CC1`, the cell number change is 27.1%. Also, the AC50 under setting [1] is 0.259 µM [falling, partial curve, poor fit].

On to `CCN(CC(=O)NC(C)C)C(=O)C(CCSC)NC(=O)c1ccccc1OC` (stereo not given), for which the cell number change was 11.8%. Moreover, the AC50 under setting [2] was 0.092 µM [falling, full curve]. The concentration at half-maximal activity (AC50) under setting [1] is 0.092 µM [falling, full curve, poor fit].

With `COc1ccc(-c2ccc(C(=O)O)c(=O)[nH]2)cc1`, the AC50 under setting [2] was 0.651 µM [falling, single point] and the AC50 under setting [1] was 0.58 µM [falling, single point].

Take `COc1cc(/C=N/NC(=O)C(N)=O)ccc1OCC(=O)N1C(C)CCCC1C` (stereo not given): the cell number change turned out to be 21.4%. For the same compound, the AC50 under setting [1] is 0.00517 µM [rising, full curve, poor fit].

Turning to `CCC(Oc1ccc(C)c(C)c1)C(=O)O` (stereo not given), the cell number change was -26.8%. Also, the AC50 under setting [2] was 0.82 µM [falling, full curve, poor fit]. The half-maximal activity concentration (AC50) under setting [1] was 3.66 µM [falling, full curve].

In the case of `CCN(C(=O)COC(=O)c1n[nH]c2ccccc12)c1ccccc1`, the cell number change was -5.32%.

Take `C=CCNC(=O)CN(c1ccc(F)cc1)S(=O)(=O)c1ccc(OC)cc1`: the cell number change worked out at 4.73%. For the same compound, the AC50 under setting [1] is 3.66 µM [rising, single point].

`COc1ccc(CNC(=O)COC(=O)CCS(=O)(=O)c2ccc(C)cc2)cc1OC`: the cell number change turned out to be 8%.

`N#Cc1cc2c(nc1SCC(O)CS(=O)(=O)Cc1ccc(Cl)cc1)CCCC2` (stereo not given): the cell number change was -13.9%. Also, under setting [1], the half-maximal activity concentration (AC50) is 0.58 µM [rising, full curve].

In the case of `Cc1ccc(C)c(OCC(=O)OCC(=O)Nc2c(C)nn(-c3ccccc3)c2C)c1`, the cell number change stood at 8%.

Turning to `CCCSc1ncccc1C(=O)O`, the cell number change was 3.96%. The AC50 under setting [2] is 4.11 µM [falling, single point]. Also, the AC50 under setting [1] is 2.91 µM [falling, partial curve, poor fit].

With `COc1ccc(N2CCN(C(=O)COC(=O)c3ccc(C)o3)CC2)cc1`, the cell number change is 2.36%. For the same compound, under setting [2], the half-maximal activity concentration (AC50) was 0.651 µM [falling, full curve, poor fit].

With `O=C(NCC1(N2CCOCC2)CCCCC1)c1cccc(S(=O)(=O)N2CCc3ccccc3C2)c1`, the AC50 reads like this: under setting [2], 0.00517 µM [rising, full curve, poor fit]; under setting [1], 0.00461 µM [rising, full curve, poor fit].

For `CC1(C)CC(=O)/C(=C\c2cccc([N+](=O)[O-])c2)C(C)(C)N1`, the cell number change was -30.6%. Under setting [2], the AC50 is 23.1 µM [falling, partial curve]. Also, the half-maximal activity concentration (AC50) under setting [1] is 6.51 µM [falling, full curve, poor fit].

`Cc1cccc(NC(=O)CSCc2nc3c(nnn3Cc3ccc(F)cc3)c(=O)[nH]2)c1C`: the cell number change was -26%. Moreover, the AC50 under setting [1] was 16.4 µM [falling, single point].

For `O=C(c1ccc(Cl)cc1)c1cnc(-c2ccc(Cl)cc2)s1`, the cell number change was 19%. For the same compound, the AC50 under setting [2] is 7.31 µM [rising, partial curve, poor fit].

As for `COc1ccccc1NC(=O)c1ccc(NC(=O)CNC(=O)c2ccc(OC)c(OC)c2)cc1`, the cell number change is -1.9%.

Take `CC1(C)Cc2c(cnn2-c2ccc(F)cc2)C(NC(=O)c2ccc(=O)oc2)C1` (stereo not given): the cell number change was -5.2%. The AC50 under setting [1] was 1.64 µM [falling, single point].

With `O=C(NC1CCCCC1)C(c1ccccc1)N1CCC2(CC1)OCCO2` (stereo not given), the cell number change turned out to be 4.46%. Also, the concentration at half-maximal activity (AC50) under setting [1] is 29.1 µM [rising, single point].

Consider `O=C(c1ccc(COc2ccccc2Br)cc1)N1CCCCCC1`, for which the cell number change was -39.7%. The AC50 under setting [2] was 29.1 µM [falling, single point].

On to `O=c1[nH]nc(Cc2ccc(-c3ccc(Cl)cc3)o2)c2ccccc12`, for which the cell number change was -13%. Moreover, the half-maximal activity concentration (AC50) under setting [1] was 29.1 µM [falling, single point].

With `O=C(CNC(=O)c1ccc(Br)o1)NC12CC3CC(CC(C3)C1)C2`, the cell number change stood at 25.4%. Besides, the AC50 under setting [1] was 29.1 µM [rising, single point].

Consider `CCN(CC)C(=O)c1sc(NC(=O)c2ccc(Br)o2)c(C(=O)OC)c1C`, for which the cell number change is 54.4%. Besides, under setting [2], the AC50 was 0.146 µM [rising, full curve, poor fit]. In addition, under setting [1], the concentration at half-maximal activity (AC50) is 1.84 µM [rising, partial curve].

On to `O=C(NC1CC1)C1CCN(c2nc3ccccc3s2)CC1`, for which the cell number change came out at 19.7%.

Consider `CCCNC(=O)c1ccc2c(=O)c(O)c(-c3cccc(Br)c3)[nH]c2c1`, for which the cell number change was -38.1%. In addition, the AC50 under setting [2] is 16.4 µM [falling, partial curve]. Also, under setting [1], the half-maximal activity concentration (AC50) was 16.4 µM [falling, partial curve].

For the compound `O=C(CCc1ccc(S(=O)(=O)NC2CCCCC2)cc1)NCc1ccccc1`, the cell number change was 82.8%. Also, under setting [2], the half-maximal activity concentration (AC50) is 9.2 µM [rising, partial curve]. The concentration at half-maximal activity (AC50) under setting [1] is 16.4 µM [rising, partial curve].

As to `CCOc1ccc(NS(=O)(=O)c2ccc(NS(=O)(=O)c3cccs3)cc2)cc1`, the cell number change was -12.7%. The AC50 under setting [1] was 14.6 µM [rising, partial curve].

As for `OCCN1CCN(c2ncnc3sc4c(c23)CCCC4)CC1`, the cell number change is -13.7%.

Turning to `COc1cccc(C2=CC(c3ccc(OC)c(OC)c3OC)n3nnnc3N2)c1` (stereo not given), the cell number change is -55.8%. In addition, under setting [2], the half-maximal activity concentration (AC50) was 0.0164 µM [falling, full curve, poor fit]. Also, the concentration at half-maximal activity (AC50) under setting [1] is 1.3 µM [falling, full curve, poor fit].

As for `COc1cc(C)c(Cl)c(C)c1S(=O)(=O)NCc1ccc2c(c1)OCO2`, the cell number change is 5.73%. Moreover, the AC50 under setting [1] is 3.26 µM [rising, full curve].

Take `NC(=O)c1ccsc1NC(=O)COC(=O)Cc1ccccc1Cl`: the cell number change was -7.83%. The AC50 under setting [2] is 0.13 µM [falling, full curve, poor fit]. In addition, under setting [1], the AC50 was 14.6 µM [falling, partial curve, poor fit].

`Cc1cccc(N2CCN(C(=O)CCCn3c(=O)[nH]c4ccsc4c3=O)CC2C)c1` (stereo not given): the cell number change was -4.96%. Moreover, under setting [1], the AC50 is 29.1 µM [falling, single point].

Consider `O=C(Nc1cc(S(=O)(=O)N2CCCCC2)ccc1N1CCOCC1)c1ccc(C(F)(F)F)cc1`, for which the cell number change is -1.8%. In addition, the half-maximal activity concentration (AC50) under setting [1] is 0.082 µM [rising, full curve, poor fit].

Take `O=C1CCCC2=C1C1(CCCCC1)N=C(Nc1nc3ccccc3s1)N2`: the cell number change is 1.79%. Moreover, the AC50 under setting [1] was 0.366 µM [rising, partial curve, poor fit].

For the compound `COc1cc(C(=O)O/N=C(\N)c2ccc([N+](=O)[O-])cc2)cc(OC)c1OC`, the cell number change was determined as 26%. Moreover, under setting [1], the half-maximal activity concentration (AC50) is 18.4 µM [rising, single point].

As for `O=C(O)c1cc2ccc3ccccc3c2[nH]1`, the cell number change was -0.395%.

As for `O=C(CN1C(=O)NC2(CCCC2)C1=O)NNC(=O)c1ccc(F)cc1`, the cell number change is -44.2%. For the same compound, under setting [2], the concentration at half-maximal activity (AC50) is 25.9 µM [falling, single point]. Further, under setting [1], the AC50 is 25.9 µM [falling, partial curve, poor fit].

In the case of `CC(=O)NC(=O)NC1OC(=O)C(Cl)=C1Cl` (stereo not given), the cell number change is -0.339%.

`COc1ccc(CNC(=O)c2c(N)n(CCCN3CCOCC3)c3nc4ccccc4nc23)cc1`: the cell number change is -73.1%. Besides, the AC50 under setting [2] is 23.1 µM [falling, single point]. Under setting [1], the AC50 was 6.51 µM [rising, single point].

For `CC(=O)c1ccc(N2CCN(S(=O)(=O)c3cn(C)cn3)CC2)cc1`, the cell number change turned out to be 2.14%.

On to `Fc1ccc(CCN2CCN=C2Nc2ccccc2)cc1`, for which the cell number change was -8.96%. Moreover, the half-maximal activity concentration (AC50) under setting [1] is 0.291 µM [rising, partial curve, poor fit].

For `COc1cc(C(=S)N2CCOCC2)ccc1O`, the cell number change came to 14.6%.

`COc1ccc(NC(=O)c2cc3ccccc3cc2O)cc1`: the half-maximal activity concentration (AC50) under setting [1] is 29.1 µM [falling, single point].

Turning to `COC(=O)c1cc(NC(=O)c2c(Cl)cnn2C)cc(C(=O)OC)c1`, the AC50 is, setting by setting: under setting [2], 0.731 µM [rising, full curve, poor fit]; under setting [1], 29.1 µM [rising, single point].

Regarding `CC(Oc1ccc(Br)cc1Br)C(=O)Nc1cccnc1Cl` (stereo not given), the cell number change is -26.3%. Under setting [1], the half-maximal activity concentration (AC50) is 29.1 µM [falling, single point].
